Test results: US20150065416A1, “NOVEL DRUG COMBINATION” (FAB PHARMA SAS, priority 2013, published 2015)
Some of these results come from one statement about several compounds together.

Test system: A. baumannii SAN-94040
Assay: Mouse model of A. baumannii pneumonia, Study 1: survival
Assay type: in vivo, Acinetobacter baumannii
Details: Study 1, SAN-94040
Experimental: The bacterial inoculum was prepared in order to obtain a suspension containing 10^8 CFU/mL of Acinetobacter baumannii in saline.
Experimentations were performed with six-week old female C3H/HeN mice (18-20 g, Breeding Centre JANVIER (Ile saint Genest Mayenne 53)) because of their particular susceptibility to Acinetobacter baumannii and the reproducibility of the results (inbreeding in the breed). Each mouse was individually marked and housed in cages containing five animals/cage under ventilated and controlled (temperature and humidity) atmosphere.
The mice were rendered transiently neutropenic by 2 intra-peritoneal (IP) injections of 150 μL of cyclophosphamide (Endoxan® 150 mg/kg) 4 (D-4) and 3 (D-3) days before the Acinetobacter baumannii inoculation (Day 0). This transient immunosuppression was sufficient to facilitate the development of the A. baumannii pneumonia while allowing the recovery of the neutrophil influx 2 (Day 2) days after inoculation in order to avoid or limit a systemic bacterial dissemination.
Mice were anesthetized by a mixture of oxygen and isoflurane. The bacterial inoculation was performed on Day 0 by intra-tracheal installation using an endotracheal catheter (50 μl of the suspension, thus 5.106 CFU). […]
Survival observations were assessed twice daily, up to 4 days post infection. […]

## NCC[C@H](O)C(=O)N[C@@H]1C[C@H](N)[C@@H](O[C@H]2O[C@H](CN)[C@@H](O)[C@H](O)[C@H]2O)[C@H](O)[C@H]1O[C@H]1O[C@H](CO)[C@@H](O)[C@H](N)[C@H]1O [amikacin]
  time post-infection within which all animals died: ≤ 72 h
